In patent US4210749A, “Substituted 1,2,4,5-tetrahydro-3H,3 benzazepines” (priority 1979, dated 1980):

Experiments:
[1] = test system: isolated segments of guinea pig ileum (acetylcholine); test: Anticholinergic activity: block of acetylcholine in isolated segments of guinea pig ileum
[2] = test system: isolated segments of guinea pig ileum (histamine); test: Antihistaminic activity: block of histamine in isolated segments of guinea pig ileum

## CN(C)CCOC(c1ccccc1)c1ccccc1 [Diphenhydramine, reference compound]
[1]
  Conc. for 50% block of Acetylcholine: 3.3 μg/20 ml
[2]
  Conc. for 50% block of Histamine: 0.12 μg/20 ml
